PubChem BioAssay AID328 (DTP/NCI, 2004)
The list does not hold the whole screen: it gathers tests that were run many times, whatever their T/C, doses with no T/C, and many T/C values between a quarter and a half above the control. Other doses and runs of a compound stand elsewhere. T/C is the treated group as % of the vehicle group. Some entries give survivors of the animals treated and no T/C: the source holds a T/C of zero for them, seemingly a mark for toxic or unscored doses. Some survivor counts are full or nearly so, which does not show that the dose was tolerated: survival well below the control is almost never listed, so the zero probably covers shortened survival too. Survivors were counted at the toxicity check, usually on the fifth day, unless a day is given; later deaths do not show. Schedule codes are those of the source, read here as Q, the interval in days (D) or hours (H), X, the number of doses. Some doses were run more than once; their values stand side by side, smallest first. For survival time, this PubChem deposit counts one and a half times the control or more as active, and values a quarter to a half above the control carry no call in these data; other NCI protocols may use other cut-offs. Some T/C values are followed by the survivors on the day toxicity was checked, most often the fifth; without a count, all were alive then. Signs of the kind (2×) count equal records among those shown.

System: BDF1 mice, P388 leukemia ip, median survival T/C
Experiment: NCI In Vivo Anticancer Drug Screen. Data for tumor model P388 Leukemia (intraperitoneal) in B6D2F1 (BDF1) mice
Details: T/C endpoint: median survival time, higher T/C = longer survival
Description: The antitumor activity of compounds was measured in mice bearing transplantable tumors. Survival or tumor size were measured and the results are expressed as the measurement made in the treated group (T) divided by the measurement made in the vehicle treated control group (C). The tumor model used in this assay is P388 Leukemia (intraperitoneal) in B6D2F1 (BDF1) mice

[1] = dose: 50.0 mg/kg/injection, schedule: Q01DX009 (ip), vehicle: saline
[2] = dose: 100.0 mg/kg/injection, schedule: Q01DX009 (ip), vehicle: saline with Tween-80
[3] = dose: 200.0 mg/kg/injection, schedule: Q01DX009 (ip), vehicle: saline with Tween-80
[4] = dose: 37.5 mg/kg/injection, schedule: Q04DX003 (ip), vehicle: saline
[5] = dose: 100.0 mg/kg/injection, schedule: Q04DX003 (ip), vehicle: saline
[6] = dose: 16.5 mg/kg/injection, schedule: Q04DX003 (ip), vehicle: saline
[7] = dose: 25.0 mg/kg/injection, schedule: Q04DX003 (ip), vehicle: saline

Structure (SMILES): Oc1cc(O)c(CN(CCCl)CCCl)cc1CN(CCCl)CCCl
- T/C (dose: 2.3 mg/kg/injection, schedule: Q01DX009 (ip), vehicle: saline): 129 % of control
- T/C (dose: 6.6 mg/kg/injection, schedule: Q04DX003 (ip), vehicle: saline): 140 % of control
- T/C (dose: 12.5 mg/kg/injection, schedule: Q01DX009 (ip), vehicle: saline): 140, 170, 190, 193, 233 % of control
- survivor count [1]: 3 of 3
- survivor count (dose: 100.0 mg/kg/injection, schedule: Q01DX009 (ip), vehicle: saline): 3 of 3
- survivor count (dose: 200.0 mg/kg/injection, schedule: Q01DX009 (ip), vehicle: saline): 0 of 3
- survivor count (dose: 400.0 mg/kg/injection, schedule: Q01DX009 (ip), vehicle: saline): 0 of 3 and 0 of 6

Structure (SMILES): CCN(CC)CCCC(C)Nc1c2ccc(C)cc2nc2ccc(OC)cc12 (stereo unspecified)
- survivor count [2]: 4 of 6
- survivor count [3]: 2 of 6

Structure (SMILES): Oc1ccccc1O.[O-]c1ccccc1[O-].[O-]c1ccccc1[O-].[O]=[V+2]
- T/C [4]: 145 % of control
- survivor count (dose: 55.0 mg/kg/injection, schedule: Q01DX009 (ip), vehicle: saline): 2 of 6
- survivor count (dose: 85.0 mg/kg/injection, schedule: Q01DX009 (ip), vehicle: saline): 1 of 6
- survivor count (dose: 125.0 mg/kg/injection, schedule: Q01DX009 (ip), vehicle: saline): 0 of 6

Structure (SMILES): [O-][Cl+3]([O-])([O-])O.[O-][n+]1c2ccccc2nc2ccccc21.[Zn+2]
- T/C [2]: 129 % of control
- survivor count [3]: 1 of 6

Structure (SMILES): CCCCNP(=O)(N1CC1CC)N1CC1CC (stereo unspecified)
- T/C (dose: 200.0 mg/kg/injection, schedule: Q04DX003 (ip), vehicle: saline): 131 % of control
- survivor count (dose: 400.0 mg/kg/injection, schedule: Q04DX003 (ip), vehicle: saline): 3 of 6

Structure (SMILES): CCCCCCCCCSC(=S)N(C)NC(=O)c1ccccn1
- survivor count [3]: 0 of 6

Structure (SMILES): CN(Cc1cnc2nc(N)nc(N)c2n1)c1ccc(C(=O)N[C@@H](CCC(=O)O)C(=O)O)cc1
- T/C (dose: 0.5 mg/kg/injection, schedule: Q01DX009 (ip), vehicle: sodium bicarbonate): 147 % of control
- T/C (dose: 1.1 mg/kg/injection, schedule: Q01DX009 (ip), vehicle: sodium bicarbonate, evaluated on day 5): 138 and 212 % of control
- T/C (dose: 1.1 mg/kg/injection, schedule: Q01DX009 (ip), vehicle: sodium bicarbonate, evaluated on day 60): 138 and 212 % of control
- T/C (dose: 1.5 mg/kg/injection, schedule: Q01DX009 (ip), vehicle: sodium bicarbonate, evaluated on day 31): 154 % of control
- T/C (dose: 1.5 mg/kg/injection, schedule: Q01DX009 (ip), vehicle: sodium bicarbonate, evaluated on day 60): 198, 208, 217, 250 % of control
- T/C (dose: 1.6 mg/kg/injection, schedule: Q01DX009 (ip), vehicle: sodium bicarbonate, evaluated on day 5): 186 and 215 % of control
- T/C (dose: 1.6 mg/kg/injection, schedule: Q01DX009 (ip), vehicle: sodium bicarbonate, evaluated on day 60): 186 and 215 % of control
- T/C (dose: 2.0 mg/kg/injection, schedule: Q01DX009 (ip), vehicle: sodium bicarbonate, evaluated on day 32): 132 % of control
- T/C (dose: 2.0 mg/kg/injection, schedule: Q01DX009 (ip), vehicle: sodium bicarbonate, evaluated on day 46): 97 % of control
- T/C (dose: 2.0 mg/kg/injection, schedule: Q01DX009 (ip), vehicle: sodium bicarbonate, evaluated on day 60): 222, 241, 244 % of control
- T/C (dose: 2.4 mg/kg/injection, schedule: Q01DX009 (ip), vehicle: sodium bicarbonate, evaluated on day 5): 175 and 296 % of control
- T/C (dose: 2.4 mg/kg/injection, schedule: Q01DX009 (ip), vehicle: sodium bicarbonate, evaluated on day 60): 175 and 296 % of control
- survivor count (dose: 4.0 mg/kg/injection, schedule: Q01DX009 (ip), vehicle: sodium bicarbonate): 6 of 8 and 8 of 8
- T/C (dose: 6.6 mg/kg/injection, schedule: Q04DX003 (ip), vehicle: sodium bicarbonate, evaluated on day 5): 121, 124, 229, 250 % of control
- T/C (dose: 6.6 mg/kg/injection, schedule: Q04DX003 (ip), vehicle: sodium bicarbonate, evaluated on day 60): 121, 124, 229, 231, 250 % of control
- T/C (dose: 10.0 mg/kg/injection, schedule: Q04DX003 (ip), vehicle: sodium bicarbonate, evaluated on day 5): 140, 164, 201, 221, 242 % of control
- T/C (dose: 10.0 mg/kg/injection, schedule: Q04DX003 (ip), vehicle: sodium bicarbonate, evaluated on day 60): 140, 164, 201, 242, 245 % of control
- T/C (dose: 15.0 mg/kg/injection, schedule: Q04DX003 (ip), vehicle: sodium bicarbonate, evaluated on day 5): 137, 141, 224, 247, 250 % of control
- T/C (dose: 15.0 mg/kg/injection, schedule: Q04DX003 (ip), vehicle: sodium bicarbonate, evaluated on day 60): 137, 141, 222 [9 of 10 alive], 225, 250 % of control
- T/C (dose: 375.0 micrograms/kg/injection, schedule: Q01DX010 (ip), vehicle: other): 158, 170, 212, 213, 245 % of control
- T/C (dose: 750.0 micrograms/kg/injection, schedule: Q01DX010 (ip), vehicle: other): 185, 229, 245 (2×), 272 % of control
- T/C (dose: 1500.0 micrograms/kg/injection, schedule: Q01DX010 (ip), vehicle: other): 213 [5 of 6 alive], 245, 250, 265, 285 % of control

Structure (SMILES): Cc1ccc2c(c1)C(=O)CC=C(C(=O)O)N2
- T/C [2]: 129 % of control
- T/C (dose: 400.0 mg/kg/injection, schedule: Q01DX009 (ip), vehicle: saline with Tween-80): 129 % of control

Structure (SMILES): CC(=O)OCc1cc(=O)n(C)c2c3c4c(cc12)c(C)cc(=O)n4CO3
- T/C (dose: 200.0 mg/kg/injection, schedule: Q01DX001 (ip), vehicle: Klucel (hydroxypropylcellulose) (HPC)): 133 % of control
- T/C (dose: 400.0 mg/kg/injection, schedule: Q01DX001 (ip), vehicle: Klucel (hydroxypropylcellulose) (HPC)): 133 % of control

Structure (SMILES): CC(=O)Nc1ccc2c([N+](=O)[O-])cccc2c1-c1c(NC(C)=O)ccc2c([N+](=O)[O-])cccc12
- T/C (dose: 50.0 mg/kg/injection, schedule: Q01DX009 (ip), vehicle: Klucel (hydroxypropylcellulose) (HPC)): 135 % of control
- T/C (dose: 200.0 mg/kg/injection, schedule: Q01DX009 (ip), vehicle: Klucel (hydroxypropylcellulose) (HPC)): 125 % of control

Structure (SMILES): CCN(CC)N=Nc1ccccc1-c1nc(N)c2ccccc2n1
- T/C (dose: 12.5 mg/kg/injection, schedule: Q04DX003 (ip), vehicle: Klucel (hydroxypropylcellulose) (HPC)): 136 % of control
- T/C (dose: 25.0 mg/kg/injection, schedule: Q04DX003 (ip), vehicle: Klucel (hydroxypropylcellulose) (HPC)): 139 % of control

Structure (SMILES): C=CCC#N
- survivor count [1]: 2 of 6
- survivor count [5]: 6 of 6

Structure (SMILES): COc1cc(C2c3cc4c(cc3C(O)C3COC(=O)C23)OCO4)cc(O)c1OC (stereo unspecified)
- T/C (dose: 1.0 mg/kg/injection, schedule: Q01DX009 (ip), vehicle: saline): 130 % of control

Structure (SMILES): CC(C)(C)NCCC(O)c1cc(C(F)(F)F)nc2c(C(F)(F)F)cccc12 (stereo unspecified)
- survivor count [3]: 1 of 6

Structure (SMILES): CCCCCc1cc(/C=C2/N=C(c3ccc[nH]3)C=C2OC)[nH]c1C
- survivor count (dose: 4.0 mg/kg/injection, schedule: Q01DX009 (ip), vehicle: other): 3 of 3

Structure (SMILES): C[n+]1c(-c2ccccc2)c2cc(N)ccc2c2ccccc21
- T/C (dose: 4.7 mg/kg/injection, schedule: Q04DX003 (ip), vehicle: saline): 125 % of control
- T/C (dose: 6.6 mg/kg/injection, schedule: Q01DX009 (ip), vehicle: saline): 131 % of control
- T/C (dose: 7.2 mg/kg/injection, schedule: Q04DX003 (ip), vehicle: saline): 136 % of control
- T/C [6]: 125 % of control
- survivor count [6]: 6 of 6
- T/C [7]: 130 and 131 % of control
- survivor count [7]: 6 of 6
- survivor count [4]: 2 of 6 and 5 of 6
- survivor count (dose: 50.0 mg/kg/injection, schedule: Q04DX003 (ip), vehicle: saline): 0 of 6
- survivor count [5]: 0 of 6

Structure (SMILES): Cc1ccc(C(O)(CS(C)=O)c2ccco2)cc1 (stereo unspecified)
- survivor count (dose: 200.0 mg/kg/injection, schedule: Q01DX009 (ip), vehicle: saline + alcohol): 5 of 6

Structure (SMILES): CN1CCN(C(=O)c2ccc(Cl)c(Cl)c2)CC1
- survivor count (dose: 200.0 mg/kg/injection, schedule: Q04DX003 (ip), vehicle: saline with Tween-80): 0 of 6

Structure (SMILES): O=[n+]1c2ccccc2n([O-])c2ccccc21.[Cl][Ni][Cl]
- T/C (dose: 25.0 mg/kg/injection, schedule: Q04DX003 (ip), vehicle: saline with Tween-80): 138 % of control
